Measurements reported in PubChem BioAssay AID504786 (Drosophila RNAi Screening Center, 2011)
Screen: 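Positive regulators of HIF-driven reporter output in Drosophila cells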 (primary screen). Cell system: Drosophila S2 cells with a stable HIF luciferase reporter. Reagent: long dsRNA against Drosophila genes, about 0.2 µg dsRNA per well of a 384-well plate. Time to read-out: three days of knock-down, then 20 h of DFO before reading. Treatment: desferrioxamine (DFO) at 100 µM, an iron chelator that mimics hypoxia, for 20 h. Measured: 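Firefly luciferase driven by the mouse ldh-a hypoxia-response element, measured after 20 h of 100 µM DFO; z-scores per plate, higher means more signal lost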. Direction: z-score: higher = stronger loss of HIF reporter signal.
The deposit covers about 21,000 reagents; below is a random part of those with a known target gene and a result. 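Primary screen; positive scores mean lost reporter signal, so the sign may be inverted from the usual convention.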 Reagents against one gene are numbered here. A plus sign joins genes that one reagent is predicted to hit.

no.	gene knocked down	reagent no.	z-score, replicate 1	z-score, replicate 2	z-score, replicate 3	z-score, replicate 4
1	shf (shifted)	1	-0.4	-0.4		
2	Fnta (Farnesyl transferase alpha subunit)	1	-0.4	-0.1		
3	CG15909	1	0.2	-0.4		
4	CG17198 + CG17197	1	-0.2	0.1		
5	CG17198 + CG17197	2	-0.3	-0.7		
6	CG3285	1	-0.2	-0.3		
7	Adsl (Adenylosuccinate lyase)	1	-0.2	-0.5		
8	tty (tweety)	1	-0.2	-0.2		
9	CG4768	1	0	0.2	0.9	-0.2
10	Pfdn2 (Prefoldin 2)	1	-0.2	0		
11	Acbp6 (Acyl-CoA binding protein 6)	1	-0.2	0		
12	CG13616	1	-0.1	-0.1		
13	Ir56d (Ionotropic receptor 56d)	1	-0.3	-0.5		
14	trp (transient receptor potential)	1	0.1	-0.6		
15	Atg10 + CG12822	1	-0.3	0.2		
16	CG42521	1	-0.3	-0.5		
17	CG14966	1	0.9	0.4		
18	yellow-e	1	-0.5	-0.6		
19	yellow-e	2	-0.3	0.1		
20	Agpat1 (1-Acylglycerol-3-phosphate O-acyltransferase 1)	1	-0.3	-0.4		
21	Agpat1 (1-Acylglycerol-3-phosphate O-acyltransferase 1)	2	-0.4	-0.6		
22	CG13622	1	-0.3	-0.3		
23	CG13891	1	-0.4	0.9		
24	CG7786	1	-0.3	-0.2		
25	Ptpa (Phosphotyrosyl phosphatase activator)	1	-0.3	-0.4		
26	CG10317	1	-0.2	0		
27	Tudor-SN (Tudor staphylococcal nuclease)	1	-0.2	1.7		
28	CG9386	1	-0.2	-0.1		
29	CG13836 (retired record)	1	-0.1	-0.4		
30	AsnRS (Asparaginyl-tRNA synthetase)	1	0.2	2		
31	twi (twist)	1	0.4	0.3		
32	oaf (out at first)	1	-0.2	-0.7		
33	Hsp83 (Heat shock protein 83)	1	2.2	2.7		
34	Chd1 (Chromodomain-helicase-DNA-binding protein 1)	1	-0.3	-0.9		
35	CR15280 (pseudo)	1	-0.2	-0.4		
36	CG9643	1	0.1	-0.1		
37	CG14556	1	-0.2	-0.8		
38	Rbsn-5 (Rabenosyn-5)	1	-0.4	-0.8		
39	Polr2A (RNA polymerase II subunit A)	1	5.2	3.5		
40	bchs (blue cheese)	1	0	0.3		
41	CG8401	1	-0.3	-0.2		
42	CG18095	1	-0.2	-0.1		
43	Cam (Calmodulin)	1	-0.4	-0.9		
44	Cam (Calmodulin)	2	-0.6	-0.6		
45	CG34384	1	-0.4	0		
46	CG34384	2	-0.1	-0.5		
47	CG34384	3	-0.4	0		
48	CG34384	4	-0.4	-0.2		
49	vret (vreteno)	1	-0.3	-0.6		
50	Rcd5 (Reduction in Cnn dots 5)	1	1.1	1.3		
51	polyph (polyphemus)	1	0	0.1		
52	CG18765	1	-0.3	-0.4		
53	Drp1 (Dynamin related protein 1)	1	-0.2	-0.1		
54	CG18284	1	-0.2	-0.2		
55	CG18284	2	0.1	-0.3		
56	Proc (Proctolin)	1	1.6	5.1		
57	CG13151	1	-0.2	-0.5		
58	Osi6 (Osiris 6)	1	-0.4	0.2		
59	Cpsf6 (Cleavage and polyadenylation specific factor 6)	1	1.5	1.3		
60	Nup107 (Nucleoporin 107kD)	1	0.7	1.9		
61	LUBEL (Linear Ubiquitin E3 ligase)	1	-0.3	-0.7		
62	Tgi (Tondu-domain-containing Growth Inhibitor)	1	-0.3	-0.1		
63	Tgi (Tondu-domain-containing Growth Inhibitor)	2	-0.5	-1		
64	CG5245	1	-0.4	-0.5		
65	Moe (Moesin)	1	0	0.6		
66	CG13008	1	-0.2	-0.3		
67	CG13008	2	-0.4	-0.3		
68	CG34454	1	-0.2	-0.1		
69	sog (short gastrulation)	1	-0.5	-0.6		
70	Indy-2 + CG33934	1	-0.2	-0.2		
71	Indy-2 + CG33934	2	-0.4	0		
72	slam (slow as molasses)	1	0.2	-0.3		
73	CG9986	1	-0.3	0.2		
74	CG14180 (retired record)	1	3.9	4		
75	alph (alphabet)	1	-0.3	-0.3		
76	be (ben)	1	-0.3	-0.3		
77	be (ben)	2	-0.4	-0.4		
78	be (ben)	3	-0.5	-0.7		
79	Taf9 (TBP-associated factor 9)	1	1.4	0.8		
80	Hsc70-1 (Heat shock protein 70 cognate 1)	1	2	2		
81	Alg-2 (Apoptosis-linked gene-2)	1	-0.2	0		
82	tw (twisted)	1	-0.2	-0.9		
83	Eip93F (Ecdysone-induced protein 93F)	1	-0.7	-0.2		
84	Eip93F (Ecdysone-induced protein 93F)	2	-0.5	-0.7		
85	Flo2 (Flotillin 2)	1	0	-0.4		
86	Flo2 (Flotillin 2)	2	-0.3	-1.2		
87	Polr1B (RNA polymerase I subunit B)	1	0.1	1.1		
88	RtcB (RtcB RNA ligase)	1	-0.4	-0.7		
89	baf (barrier to autointegration factor)	1	-0.2	-0.1		
90	thr (three rows)	1	-0.3	-0.2		
91	Drat (Death resistor Adh domain containing target)	1	-0.3	0		
92	Nepl21 (Neprilysin-like 21)	1	-0.3	-0.3		
93	CG5554	1	-0.3	-0.3		
94	CG13924	1	-0.3	-0.3		
95	IscU (Iron-sulfur cluster assembly enzyme)	1	2.6	0.7		
96	tobi (target of brain insulin)	1	-0.5	0.4		
97	CG13625	1	0	1.1		
98	CG42535	1	-0.2	-0.6		
99	ACXD (Adenylyl cyclase X D)	1	0.1	1.3		
100	CG4151	1	-0.3	0.2		
101	Rpe (Ribulose-5-phosphate-3-epimerase)	1	-0.3	-0.6		
102	CG5004	1	-0.3	-0.1		
103	CG5004	2	0.1	-0.4		
104	CG5004	3	0.9	0.8		
105	CG42531	1	-0.3	0.2		
106	CG4752	1	-0.4	-0.2		

Reformatted: 15 of the entries above
{"gene knocked down": "Pfdn2 (Prefoldin 2)", "reagent no.": 1, "z-score, replicate 1": -0.2, "z-score, replicate 2": 0}
{"gene knocked down": "Acbp6 (Acyl-CoA binding protein 6)", "reagent no.": 1, "z-score, replicate 1": -0.2, "z-score, replicate 2": 0}
{"gene knocked down": "CG13616", "reagent no.": 1, "z-score, replicate 1": -0.1, "z-score, replicate 2": -0.1}
{"gene knocked down": "Ir56d (Ionotropic receptor 56d)", "reagent no.": 1, "z-score, replicate 1": -0.3, "z-score, replicate 2": -0.5}
{"gene knocked down": "trp (transient receptor potential)", "reagent no.": 1, "z-score, replicate 1": 0.1, "z-score, replicate 2": -0.6}
{"gene knocked down": "Atg10 + CG12822", "reagent no.": 1, "z-score, replicate 1": -0.3, "z-score, replicate 2": 0.2}
{"gene knocked down": "CG42521", "reagent no.": 1, "z-score, replicate 1": -0.3, "z-score, replicate 2": -0.5}
{"gene knocked down": "CG14966", "reagent no.": 1, "z-score, replicate 1": 0.9, "z-score, replicate 2": 0.4}
{"gene knocked down": "yellow-e", "reagent no.": 1, "z-score, replicate 1": -0.5, "z-score, replicate 2": -0.6}
{"gene knocked down": "yellow-e", "reagent no.": 2, "z-score, replicate 1": -0.3, "z-score, replicate 2": 0.1}
{"gene knocked down": "Agpat1 (1-Acylglycerol-3-phosphate O-acyltransferase 1)", "reagent no.": 1, "z-score, replicate 1": -0.3, "z-score, replicate 2": -0.4}
{"gene knocked down": "Agpat1 (1-Acylglycerol-3-phosphate O-acyltransferase 1)", "reagent no.": 2, "z-score, replicate 1": -0.4, "z-score, replicate 2": -0.6}
{"gene knocked down": "CG13622", "reagent no.": 1, "z-score, replicate 1": -0.3, "z-score, replicate 2": -0.3}
{"gene knocked down": "CG13891", "reagent no.": 1, "z-score, replicate 1": -0.4, "z-score, replicate 2": 0.9}
{"gene knocked down": "CG7786", "reagent no.": 1, "z-score, replicate 1": -0.3, "z-score, replicate 2": -0.2}
